Reference: publication PMC6768323, “Adverse Maternal, Fetal, and Postnatal Effects of Hexafluoropropylene Oxide Dimer Acid (GenX) from Oral Gestational Exposure in Sprague-Dawley Rats” (Environmental Health Perspectives, 2019)

Assay: Margin of internal exposure, maternal rat serum : human worker plasma

O=C(O)C(F)(OC(F)(F)C(F)(F)C(F)(F)F)C(F)(F)F (centres unmarked) [HFPO-DA, Hexafluoropropylene oxide dimer acid]
mean dam serum concentration versus highest worker plasma concentration (1 mg/kg per day): 4 fold
mean dam serum concentration versus highest worker plasma concentration (125 mg/kg per day): 272 fold
